## Primary screen of a compound library

Amino acid sequences for entries named in this document (tags omitted).
UniProt E9BF75, entry or part of it: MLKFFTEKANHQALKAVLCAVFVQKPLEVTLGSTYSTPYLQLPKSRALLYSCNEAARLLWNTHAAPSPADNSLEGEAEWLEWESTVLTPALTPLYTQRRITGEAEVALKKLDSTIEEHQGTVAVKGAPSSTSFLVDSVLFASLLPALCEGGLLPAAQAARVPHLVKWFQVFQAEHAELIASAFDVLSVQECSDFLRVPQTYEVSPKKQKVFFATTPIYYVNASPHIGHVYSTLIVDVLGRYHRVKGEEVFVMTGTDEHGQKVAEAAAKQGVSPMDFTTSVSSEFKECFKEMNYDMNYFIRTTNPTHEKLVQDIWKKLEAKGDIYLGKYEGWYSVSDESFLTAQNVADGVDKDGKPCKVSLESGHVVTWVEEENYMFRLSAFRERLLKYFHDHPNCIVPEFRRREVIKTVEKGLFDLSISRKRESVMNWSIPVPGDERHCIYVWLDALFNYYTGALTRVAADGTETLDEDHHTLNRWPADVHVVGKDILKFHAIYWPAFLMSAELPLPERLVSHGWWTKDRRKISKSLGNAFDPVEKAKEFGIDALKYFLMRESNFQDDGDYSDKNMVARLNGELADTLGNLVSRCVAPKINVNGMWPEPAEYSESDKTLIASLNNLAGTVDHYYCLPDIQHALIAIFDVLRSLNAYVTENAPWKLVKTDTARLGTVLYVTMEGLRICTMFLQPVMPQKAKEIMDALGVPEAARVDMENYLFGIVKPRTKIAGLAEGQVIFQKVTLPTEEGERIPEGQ

Mtb heat-shock: 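Assay on Mycobacterium tuberculosis, filed only as a heat shock assay from Cornell; the read-out is not stated. The concentration is filed as 10 mM, unlikely as a test dose, so the dose is not known. Higher reads as stronger inhibition (inferred: compounds with an IC50 in retests scored well above the rest). About 69,000 compounds were tested under these conditions; 1.4% (about 930) showed 50% or more at least once.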
LdMetRS: 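Primary screen of methionyl-tRNA synthetase; the read-out is not stated. Target: Methionyl-tRNA synthetase (putative), Leishmania donovani (UniProt E9BF75). The test concentration is not given. The values are filed as inhibition. About 68,000 compounds were tested under these conditions; 0.035% (about 24) showed 50% or more at least once.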
Mtb growth Cornell: 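Whole-cell assay for inhibitors of Mycobacterium tuberculosis growth, labelled Cornell in the record; the read-out is not stated. The concentration is filed as 10 mM, unlikely as a test dose, so the dose is not known. Higher means stronger inhibition (inferred from two other growth screens of the library). Of about 53,000 compounds tested this way, about 900 (1.7%) reached 50% or more in at least one test.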

Results are percentages, as filed.
The record does not define 0% and 100%; most values in the screen are far below 50% and negative numbers occur (in some assays of this library far below -100).
Compounds were drawn at random from those tested, without regard to their results.
A dash means the value is not listed here; it may have been measured.

CS(=O)(=O)c1nccn1Cc1ccncc1 gave Mtb heat-shock: 14.32%; LdMetRS: 10.42%; Mtb growth Cornell: -6.638%.
Cc1nc(NC(=O)OC(C)(C)C)sc1C(=O)O gave Mtb heat-shock: -14.76%; LdMetRS: 6.906%.
CC(O)CCn1ccc2[nH]c(=O)c(C#N)cc2c1=O (stereo not shown) gave Mtb heat-shock: -12.99%; LdMetRS: 2.667%.
Cc1noc(C2CN(Cc3ccc4c(c3)CCO4)C2)n1 gave LdMetRS: 10.79%.
CC1Cc2ccccc2N1C(=O)Cn1nc(-c2cccs2)cc(N)c1=O (stereo not shown) gave Mtb heat-shock: 12.36%; LdMetRS: 4.43%; Mtb growth Cornell: 5.378%.
CNc1nc2c(s1)C(c1cc(Cl)ccc1F)CC(=O)N2 (stereo not shown) gave Mtb heat-shock: 5.755%; LdMetRS: 16.43%; Mtb growth Cornell: 33.91%.
O=S(=O)(NCCN1CCOCC1)c1cncc(Cl)c1 gave Mtb heat-shock: 2.808%; LdMetRS: 7.394%; Mtb growth Cornell: -0.4293%.
CCS(=O)(=O)N[C@H]1CN(CC(C)(C)N2CCOCC2)C[C@@H]1C1CC1 gave Mtb heat-shock: 13.41%; LdMetRS: -2.03%.
COC(=O)CC(NC(=O)c1cccc(CS(C)(=O)=O)c1)c1cccs1 (stereo not shown) gave Mtb heat-shock: 7.003%; LdMetRS: 8.108%; Mtb growth Cornell: 7.345%.
COCc1ccccc1C(=O)N1CCCC1Cn1nc(C)cc1C (stereo not shown) gave Mtb heat-shock: 6.819%; LdMetRS: 16.19%.
CS(=O)(=O)N1CC2(CCCN(C3COC3)C2)Cc2ccccc21 (stereo not shown) gave Mtb heat-shock: -19.76%; LdMetRS: 14.86%.
COc1ccc(S(=O)(=O)NC(=O)COC2CCCC2)cc1 gave Mtb heat-shock: -12.06%; LdMetRS: 16.24%; Mtb growth Cornell: -60.84%.
COCc1cccc(C(=O)N(C)Cc2ncc(C)c(OC)c2C)c1 gave Mtb heat-shock: -3.397%; LdMetRS: 14.58%; Mtb growth Cornell: 21.9%.
CCn1nc2c(cc1=O)CN(Cc1nc(CCOC)no1)CC2 gave Mtb heat-shock: -10.24%; LdMetRS: 4.294%; Mtb growth Cornell: 1.318%.
CN(c1ccc(CNC(=O)c2ccc(O)nc2)cc1)C1CCCCC1 gave Mtb heat-shock: 30.03%; LdMetRS: 8.696%; Mtb growth Cornell: 7.971%.
O=C(CC1CC1)NCc1cn2c(n1)CN(CC1CC1)CC2 gave LdMetRS: 10.1%.
O=C(O)C(F)(F)F.O=C(O)C(F)(F)F.O=C(O)C(F)(F)F.[H][C@]12C[C@@H](CN(C)C)N(C)[C@@]1([H])CCN(c1ncc(F)cn1)C2 gave Mtb heat-shock: -13.62%; Mtb growth Cornell: 23.39%.
Cc1ccc(CN2CCC3(CCN(c4cnn(C)c4)C3=O)C2)s1.O=C(O)C(F)(F)F (stereo not shown) gave Mtb heat-shock: -24.12%; Mtb growth Cornell: 6.108%.
O=C(O)[C@@H]1CN(C(=O)c2ccc(Cl)cc2)C[C@H]1c1cccc(F)c1 gave Mtb heat-shock: -1.182%; LdMetRS: 11.04%; Mtb growth Cornell: 24.3%.
CC1CN(S(=O)(=O)c2ccc(C(=O)NCC(F)F)cc2)CCCO1 (stereo not shown) gave Mtb heat-shock: -16.14%; LdMetRS: 4.375%.
[H][C@]12CCCCN1CCC[C@H]2CCC(=O)NCCc1n[nH]c(=O)n1C gave Mtb heat-shock: -18.85%.
O=C(O)C(F)(F)F.[H][C@@]12CN(Cc3nccn3C)C[C@]1([H])OCCN2c1ccnc(N(C)C)n1 gave Mtb heat-shock: -13.16%; Mtb growth Cornell: -3.92%.
Fc1cccc(-c2c[nH]c([C@@H]3COCCN3C3CCOCC3)n2)c1 gave Mtb heat-shock: -27.58%; LdMetRS: -1.648%.
CCn1cc(CN2CCN(C(=O)N3CCOCC3)CC2)cn1 gave Mtb heat-shock: -26.12%; LdMetRS: 5.396%; Mtb growth Cornell: 1.134%.
CCC(NC1CCCC1)c1ccc(S(C)(=O)=O)cc1 (stereo not shown) gave Mtb heat-shock: -17.14%; LdMetRS: 15.93%.
CCN1CCCc2cc(-c3cncn3C(C)CN3CCOCC3)ccc21.Cl (stereo not shown) gave Mtb heat-shock: -27.45%; Mtb growth Cornell: 28.71%.
CCCn1cc(S(=O)(=O)N[C@H]2CN(C(C)=O)C[C@@H]2C2CC2)cn1 gave Mtb heat-shock: -19.44%; LdMetRS: 9.025%; Mtb growth Cornell: 0.0994%.
[H][C@@]12CCN(Cc3cccc(C)n3)C[C@@]1([H])O[C@H](C)C2 gave Mtb heat-shock: -30.82%; Mtb growth Cornell: -25.41%.
CCc1cc(C(=O)N2CCCC(c3cc(=O)nc4n3CCC4)C2)no1 (stereo not shown) gave Mtb heat-shock: -2.642%; LdMetRS: 11.01%; Mtb growth Cornell: 13.86%.
c1cnnc(N2CCCC(NCc3ccc(-n4cncn4)cc3)C2)c1 (stereo not shown) gave Mtb heat-shock: 14.51%; LdMetRS: 16.84%; Mtb growth Cornell: -0.8182%.
Cn1nccc1C(=O)N1CC[C@]2(C[C@H](OCc3ccccn3)CO2)C1 gave LdMetRS: 14.43%.
COC(C)C(=O)NS(=O)(=O)c1ccc(F)c(C(F)(F)F)c1 (stereo not shown) gave Mtb heat-shock: 11.78%; LdMetRS: 12.18%.
O=C1CCCN1Cc1ncn2c1CN(C(=O)NC1CCCCC1)CCC2 gave Mtb heat-shock: -42.33%; LdMetRS: 17.18%; Mtb growth Cornell: -9.537%.
CSCCC(C)NC(=O)c1cccc(-c2n[nH]c(C)n2)c1 (stereo not shown) gave Mtb heat-shock: 7.841%; LdMetRS: 13.92%.
Cc1csc(NC(=O)c2cnc(C3CCNCC3)cn2)n1.Cl gave Mtb heat-shock: -24.76%; Mtb growth Cornell: 6.667%.
Cc1nc(N2CCCCC2)ncc1-c1cc(=O)[nH]c(N2CCCC2)n1 gave Mtb heat-shock: 6.764%; LdMetRS: 9.61%; Mtb growth Cornell: -63.72%.

Some entries from above, unchanged:

structure,Mtb heat-shock,LdMetRS,Mtb growth Cornell
CSCCC(C)NC(=O)c1cccc(-c2n[nH]c(C)n2)c1 (stereo not shown),7.841%,13.92%,-
CCc1cc(C(=O)N2CCCC(c3cc(=O)nc4n3CCC4)C2)no1 (stereo not shown),-2.642%,11.01%,13.86%
COCc1cccc(C(=O)N(C)Cc2ncc(C)c(OC)c2C)c1,-3.397%,14.58%,21.9%
Cc1noc(C2CN(Cc3ccc4c(c3)CCO4)C2)n1,-,10.79%,-

Source: ChEMBL document CHEMBL3988442, “University of Dundee, Small-Polar-MMV Screening Library” (2021).